We go through one molecule from doi:10.1101/2025.02.26.640373.

The test has as its target SHP2^T42A-TurboID (UniProt Q06124). The experiment in a line: proximity labelling; SHP2-TurboID variants against a TurboID-only control in SHP2 knock-out HEK 293 cells; exogenous biotin; biotinylated proteins enriched and identified by mass spectrometry; hits p<0.05 and log2 fold-change >1; cells unstimulated or stimulated with 100 ng/mL EGF; SHP2^WT also after 4 hours with 1 uM TNO155.

No constants are given. Whether binding was seen depends on the method and setting. In cells and extracts the contact can be indirect. These calls come from enrichment with a bait or labelling near it, and not all partners need be listed.

B1: ACOX1 (enzyme, UniProt Q15067 1-660)
chain: MNPDLRRERDSASFNPELLTHILDGSPEKTRRRREIENMILNDPDFQHEDLNFLTRSQRYEVAVRKSAIMVKKMREFGIADPDEIMWFKKLHLVNFVEPVGLNYSMFIPTLLNQGTTAQKEKWLLSSKGLQIIGTYAQTEMGHGTHLRGLETTATYDPETQEFILNSPTVTSIKWWPGGLGKTSNHAIVLAQLITKGKCYGLHAFIVPIREIGTHKPLPGITVGDIGPKFGYDEIDNGYLKMDNHRIPRENMLMKYAQVKPDGTYVKPLSNKLTYGTMVFVRSFLVGEAARALSKACTIAIRYSAVRHQSEIKPGEPEPQILDFQTQQYKLFPLLATAYAFQFVGAYMKETYHRINEGIGQGDLSELPELHALTAGLKAFTSWTANTGIEACRMACGGHGYSHCSGLPNIYVNFTPSCTFEGENTVMMLQTARFLMKSYDQVHSGKLVCGMVSYLNDLPSQRIQPQQVAVWPTMVDINSPESLTEAYKLRAARLVEIAAKNLQKEVIHRKSKEVAWNLTSVDLVRASEAHCHYVVVKLFSEKLLKIQDKAIQAVLRSLCLLYSLYGISQNAGDFLQGSIMTEPQITQVNQRVKELLTLIRSDAVALVDAFDFQDVTLGSVLGRYDGNVYENLFEWAKNSPLNKAEVHESYKHLKSLQSKL
As for B1, the binding result is listed as “binds”.
